# Measurements reported in the supplement of paper PMC10338343.
# ± gives the standard deviation. This is a selection; strong and weak results do not stand in their true shares. Many entries were measured with a wide error.
# Test system: MILI (PIWIL2) piRISC loaded with piRNA #2 (26 nt)
# Assay: pre-steady-state target cleavage rate (min^-1); MIWI and MILI are mouse PIWI proteins and EfPiwi is from a freshwater sponge; tags in brackets are library labels; higher = faster piRNA-guided slicing of the target
# Conditions: guide: piRNA #2 5'p-UUAGGUAACCCAGUAGAUCCAGAGGA; auxiliary factor: 500 nM mouse GTSF1
# How it was run: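 A burst-and-steady-state fit was used to obtain the pre-steady-state cleavage rate. The input data were sequencing reads of uncleaved targets, normalised to depth and to weakly complementary targets, from a […] transcribed, DNA-blocked target RNA library mixed with 1 nM active affinity-purified piRISC holding one synthetic guide, with or without 500 nM GTSF1 partner protein, in HEPES–potassium acetate buffer at 33 °C for 0–8 or 0–960 min. Three trials were pooled and k3 was capped at 0.0001 min^-1.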
# 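Further: 1 nM active piRISC with 0.1 nM target library at 33 °C single turnover.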
row,Sequence,pre-steady-state target cleavage rate
1,CUUAAGGACUGGAUCUACUGGGUUACCAUA,0.00402 ± 0.0085
2,CUUAAGGAGAGGAUCAACUGCGUUACCUAA,0.00124 ± 0.0086
3,CUUAAGGAGUGGAUCUUCUGGGUAACCUAA,0.0035 ± 0.0057
4,CUUAAGGACUGGAUCUACUGGGUUACUCUAA,0.00679 ± 0.0086
5,CUUAAGGAGACCAUGCUACUGGGUUACCUAA,0.000862 ± 0.011
6,CUUAAGGAGACUAUCUACUGGGUUACCUAA,0.00184 ± 0.0053
7,CUUAAGGAGACCUUCUACUGGGUAUACCUAA,0.00085 ± 0.013
8,CUUAAGGAGAGGUUCUACUGCGUUACCUAA,0.00134 ± 0.0058
9,CUUAAGGACUGGAUCUACUGGGUUACCUGA,0.00746 ± 0.008
10,CUUAAGGUCUGGAUCUACUGGCUUACCUAA,0.00125 ± 0.0091
11,CUUAAGGAGACCUAGUACUAGGGUUACCUAA,0.000143 ± 0.04
12,CUUAAGGUCUGGAUCUACUGCGUUAGCUAA,0.00058 ± 0.018
13,CUUAAGGAGAGGAGUCUACUGGGUUACCUAA,0.00217 ± 0.0047
14,CUUAAGGAGACCUAGAUGUGGGUUACCAUA,0.000121 ± 0.043
15,CUUAAGGAGUGGAUCUUCUGGGUUACGUAA,0.000577 ± 0.016
16,CUUAAGGACUGGAUCUACUGCGUUACGUAA,0.000304 ± 0.035
17,CUUAAGGAGUGGAUGUACUGGGUUACCAAA,0.00385 ± 0.009
18,CUUAAGGAGAGGAUCUACUAGGGUUACCUAA,0.00118 ± 0.0051
19,CUUAAGGAGACCAUCUACUGGGUAACCUUA,0.000199 ± 0.048
20,CUUAAGGACAGGAUCUACUGCGUUACCUAA,0.00189 ± 0.013
21,CUUAAGGACUGCAUCUACUGGGUUACCAAA,0.00166 ± 0.013
22,CUUAAGCUCUGGAUCUACAUGGGUUACCUAA,0.000147 ± 0.035
23,CUUAAGGAGACCAUCUACUGGGUUACCUAU [g2:g18:cont:t1U],0.00168 ± 0.0043
24,CUUAAGGAGACGAUCUACUGGCUAACCUAA,0.000132 ± 0.048

row,Sequence,pre-steady-state target cleavage rate
1,CUUAAGCUCUGGAUCUACUGCGAUACCUAA,0.000342 ± 0.025
2,CUUAAGGAGACCUACUACUGGGUGUACCUAA,0.000261 ± 0.041
3,CUUAAGGAGAGGGUCUACUGGGUUACCUAA,0.00196 ± 0.0043
4,CUUAAGGAGACCAUCUACUGCGUUACCUAA,0.00128 ± 0.0039
5,CUUAAGGUCUGGAUCUACUGGAGUUACCUAA,0.00106 ± 0.012
6,CUUAUCCACUGGAUCUACUGGGUUAGCUAA,0.00417 ± 0.0052
7,CUUAAGGAGACCUACUUCUGCGUUACCUAA,0.000361 ± 0.011
8,CUUAAGGAGACCUUCUACUGCCUUACCUAA,0.000657 ± 0.0081
9,CUUAAGGUCAGGAUCUACUGGGUUACGUAA,0.00305 ± 0.0094
10,CUUAAGGAGACCUUCUACUGGGUAACCUAA,0.000547 ± 0.01
11,CUUAAGGAGACCUUCUACUGGCAUACCUAA,0.000117 ± 0.041
12,CUUAAGGAGACCUUCUACUGGAUUACCUAA,0.000542 ± 0.019
13,CUUAAGGAGACCUAGAUCUGCCUUACCUAA,0.000103 ± 0.043
14,CUUAAGGAGACCUUCUACUGGGUUACCAA,0.00066 ± 0.013
15,CUUAACCUCUGGAUCUACUGGGUUUCCUAA,0.224 ± 0.062
16,CUUAAGGACUGGAUCAACUGCGUUACCUAA,0.00143 ± 0.021
17,CUUAAGGAGACCUUCUACUGGGUUAACUAA,0.000255 ± 0.035
18,CUUAAGGAGUGGAACUACUGCGUUACCUAA,0.000522 ± 0.025
19,CUUAAGGAGACGUUCUACUGGGUAACCUAA,0.000694 ± 0.013
20,CUUAAGGAGACGAUACUACUGGGUUACCUAA,0.000115 ± 0.034
21,CUUAAGGACUGGAUCUACUGCGUUUCCUAA,0.000394 ± 0.037
22,CUUAUCCUCUGGAUCUACUGGCUUACCUAA,0.0034 ± 0.0034
23,CUUAAGGAGAGGAUCAACUGGGUUACCUAA,0.00307 ± 0.0032
24,CUUAAGCUCUGGAUCUACUGCGUUAGCUAA,0.00115 ± 0.0099

# Single entries from the results shown.
# Value of CUUAAGGAGACCAUCUACUGCGUUACCUAA under pre-steady-state target cleavage rate: 0.00128 ± 0.0039
# Value of CUUAAGGAGACCUUCUACUGGGUUACCAA under pre-steady-state target cleavage rate: 0.00066 ± 0.013
# Value of CUUAUCCUCUGGAUCUACUGGCUUACCUAA under pre-steady-state target cleavage rate: 0.0034 ± 0.0034
# Value of CUUAAGGAGAGGAUCAACUGGGUUACCUAA under pre-steady-state target cleavage rate: 0.00307 ± 0.0032
# Value of CUUAACCUCUGGAUCUACUGGGUUUCCUAA under pre-steady-state target cleavage rate: 0.224 ± 0.062
# Value of CUUAAGGAGACCUUCUACUGGGUAACCUAA under pre-steady-state target cleavage rate: 0.000547 ± 0.01

# Remaining list, next part.

row,Sequence,pre-steady-state target cleavage rate
1,CUUAAGGAGACGAUCUACUGAGUUACCUAA,0.00282 ± 0.0034
2,CUUAAGGAGUGCAUCUACUGGGUUAGCUAA,0.00119 ± 0.0082
3,CUUAAGGAGUGGUUCUACUGCGUUACCUAA,0.00235 ± 0.0064
4,CUUAAGGAGACCAACUACUGGGUUACCUAA,0.00106 ± 0.0072
5,CUUAAGGACUGGUUCAACUGGGUUACCUAA,0.00369 ± 0.01
6,CUUAAGGAGACCUUCAACUGGGUUAGCUAA,0.000102 ± 0.057
7,CUUAACCUCUGGUACUACUGGGUUACCUAA,0.256 ± 0.074
8,CUUAAGGACUGGAUCAACUGGGUUACGUAA,0.0032 ± 0.01
9,CUUAAGGAGAGGAUCUACUGGGAUACCUUA,0.000201 ± 0.03
10,CUUAUCCUCUGGAUCCUACUGGGUUACCUAA,0.0665 ± 0.018
11,CUUAAGCUCUGGAUCUAGUGCGUUACCUAA,0.0017 ± 0.0059
12,CUUAAGGAGUGCAUCUUCUGGGUUACCUAA,0.00194 ± 0.0058
13,CUUAAGGAGACCUUCUACUGGGAUAGCUAA,0.000371 ± 0.02
14,CUUAAGGAGACGAUCUACUGCGGUUACCUAA,0.0004 ± 0.026
15,CUUAUCCUCUGGAUCUACUGGGUUCACCUAA,0.0872 ± 0.017
16,CUUAAGGAGACGAUCUACUCGGUUACCUAA,0.001 ± 0.013
17,CUUAAGGAGACCAUCUACUGGGUACCUAA,0.000116 ± 0.036
18,CUUAAGGAGACCUAGUACACCGUUACCUAA,0.000315 ± 0.044
19,CUUAUCCUCUGGAUCUACUGGCGUUACCUAA,0.00253 ± 0.0048
20,CUUAAGGAGACGUUCUACUGGGUUUCCUAA,0.000897 ± 0.012
21,CUUAAGGAGUGGAUCUACUGGGUUACAUAA,0.00313 ± 0.0045
22,CUUAAGGAGACCUUCUACUGGGUUUCCAAA,0.000514 ± 0.016
23,CUUAAGGAGACCUAGUAGUGGGUUACCUAA,0.000179 ± 0.026
24,CUUAAGGAGAGGAUCUACUGGGAAUCCUAA,0.000135 ± 0.034
